The experiment has as its system P388 leukemia ip, CD2F1 mice, survival T/C. The experiment is described as follows: NCI In Vivo Anticancer Drug Screen. Data for tumor model P388 Leukemia (intraperitoneal) in CD2F1 (CDF1) mice. The settings on record: T/C endpoint: median survival time, higher T/C = longer survival.
[1] abbreviates: dose: 25.0 mg/kg/injection, schedule: Q01DX009 (ip), vehicle: Klucel (hydroxypropylcellulose) (HPC).
Setting [2] is: dose: 50.0 mg/kg/injection, schedule: Q01DX009 (ip), vehicle: Klucel (hydroxypropylcellulose) (HPC).
Setting [3] is: dose: 100.0 mg/kg/injection, schedule: Q01DX009 (ip), vehicle: Klucel (hydroxypropylcellulose) (HPC).
The mark [4] stands for this setting: dose: 200.0 mg/kg/injection, schedule: Q01DX009 (ip), vehicle: Klucel (hydroxypropylcellulose) (HPC).
The mark [5] stands for this setting: dose: 12.5 mg/kg/injection, schedule: Q01DX009 (ip), vehicle: Klucel (hydroxypropylcellulose) (HPC).
The mark [6] stands for this setting: dose: 1.56 mg/kg/injection, schedule: Q01DX009 (ip), vehicle: Klucel (hydroxypropylcellulose) (HPC).
Where [7] appears, read: dose: 3.13 mg/kg/injection, schedule: Q01DX009 (ip), vehicle: Klucel (hydroxypropylcellulose) (HPC).

The structures appear in SMILES notation. The list does not hold the whole screen: its compounds were picked by chemical class. Other doses and runs of a compound may be missing. T/C: endpoint of the treated group in % of that of the vehicle group. Some doses have a count of surviving animals in place of a T/C: the source holds a T/C of zero for them, seemingly a mark for toxic or unscored doses. Some survivor counts are full or nearly so, which does not show that the dose was tolerated: the source hardly ever lists a survival T/C far under the control, and the zero likely stands for such cases as well. Survivors were counted at the toxicity check, usually on the fifth day, unless a day is given; later deaths do not show. Schedule codes are those of the source, taken here to give the interval after Q, in days (D) or hours (H), and the number of doses after X. Some complexes appear as separate parts, the way the source draws them; their charges need not add up. Where survival is the endpoint, the PubChem record calls one and a half times the control and up active, and a quarter to a half above the control has no call in these data; cut-offs in other NCI protocols can differ. Some entries hold several experiments; the values are given in rising order. Some entries show no survivor count and are marked so; the dose need not have been tolerated. Counts like (3×) stand for listed records that agree. Some T/C values are followed by the survivors on the day toxicity was checked, most often the fifth; without a count or a note in brackets, all were alive then.

Consider `CN([PH+](F)F)[PH+](F)F.CN([PH+](F)F)[PH+](F)F.CN([PH+](F)F)[PH+](F)F.[Mo]`, for which the T/C is, setting by setting: (dose: 100.0 mg/kg/injection, schedule: Q01DX001 (ip), vehicle: Klucel (hydroxypropylcellulose) (HPC)) 106 % of control; (dose: 200.0 mg/kg/injection, schedule: Q01DX001 (ip), vehicle: Klucel (hydroxypropylcellulose) (HPC)) 112 % of control. The survivor count (dose: 400.0 mg/kg/injection, schedule: Q01DX001 (ip), vehicle: Klucel (hydroxypropylcellulose) (HPC)) was 0 of 6.
As for `CC(C)OP(C)(=O)O.[Sm]`, the T/C is, setting by setting: (dose: 12.5 mg/kg/injection, schedule: Q01DX009 (ip), vehicle: saline with Tween-80) 99 % of control [survivor count not shown]; (dose: 25.0 mg/kg/injection, schedule: Q01DX009 (ip), vehicle: saline with Tween-80) 94 % of control [survivor count not shown]; (dose: 50.0 mg/kg/injection, schedule: Q01DX009 (ip), vehicle: saline with Tween-80) 91 % of control [survivor count not shown] (2×).
Regarding `CCOP(=O)(O)CC.[Eu]`, the T/C (dose: 100.0 mg/kg/injection, schedule: Q04DX002 (ip), vehicle: saline with Tween-80) was 92 % of control [survivor count not shown] and the T/C (dose: 200.0 mg/kg/injection, schedule: Q04DX002 (ip), vehicle: saline with Tween-80) is 94 % of control [survivor count not shown].
For the compound `NC(=S)N/N=C/c1ccc(N(CCCl)CCCl)cc1`, the T/C runs as follows: under setting [1], 109 and 115 % of control; under setting [2], 119 and 120 % of control; under setting [3], 100 and 129 % of control; under setting [4], 129 % of control. For the same compound, the survivor count under setting [4] is 6 of 6.
With `C[N+](CCCl)(CCCl)Cc1ccccc1`, the T/C was 90 % of control (dose: 6.25 mg/kg/injection, schedule: Q01DX009 (ip), vehicle: alcohol); 104 % of control (dose: 12.5 mg/kg/injection, schedule: Q01DX009 (ip), vehicle: alcohol); 104 % of control (dose: 25.0 mg/kg/injection, schedule: Q01DX009 (ip), vehicle: alcohol).
Take `O=NN(CC(F)([N+](=O)[O-])[N+](=O)[O-])CC(F)([N+](=O)[O-])[N+](=O)[O-]`: the T/C was 116 % of control (dose: 100.0 mg/kg/injection, schedule: Q01DX009 (ip), vehicle: saline) and 121 % of control (dose: 200.0 mg/kg/injection, schedule: Q01DX009 (ip), vehicle: saline). For the same compound, the survivor count (dose: 400.0 mg/kg/injection, schedule: Q01DX009 (ip), vehicle: saline) is given as 2 of 6.
`O=P(Cl)(NC12CC3CC(CC(C3)C1)C2)c1ccccc1` (stereo unspecified): the T/C runs as follows: under setting [5], 100 % of control; under setting [1], 90 % of control; under setting [2], 102 % of control; under setting [3], 98 % of control.
With `BrCCN(CCBr)c1cccc2ccccc12`, the T/C (dose: 0.39 mg/kg/injection, schedule: Q01DX009 (ip), vehicle: Klucel (hydroxypropylcellulose) (HPC)) is 127 % of control; the T/C (dose: 0.78 mg/kg/injection, schedule: Q01DX009 (ip), vehicle: Klucel (hydroxypropylcellulose) (HPC)) is 144 and 176 % of control; the T/C under setting [6] is 152 % of control; the T/C under setting [7] was 186 % of control; the T/C (dose: 6.25 mg/kg/injection, schedule: Q01DX009 (ip), vehicle: Klucel (hydroxypropylcellulose) (HPC)) is 100 % of control. The survivor count is, setting by setting: under setting [6], 0 of 6; under setting [7], 6 of 6; under setting [5], 6 of 6; under setting [1], 2 of 6; under setting [2], 6 of 6; under setting [3], 4 of 6. Also, under setting [4], the survivor count is 0 of 6.
`NNC(NN)NN.n1nc(-c2nn[nH]n2)n[nH]1`: the T/C was 95 % of control [survivor count not shown] under setting [2], 89 % of control [survivor count not shown] under setting [3] and 91 % of control [survivor count not shown] under setting [4].
Consider `CN(CCCl)CC1OC(O)C(O)C(O)C1O` (stereo unspecified), for which the T/C runs as follows: (dose: 25.0 mg/kg/injection, schedule: Q01DX009 (ip), vehicle: saline sonified) 172 % of control; (dose: 33.0 mg/kg/injection, schedule: Q01DX009 (ip), vehicle: saline sonified) 166 % of control; (dose: 50.0 mg/kg/injection, schedule: Q01DX009 (ip), vehicle: saline sonified) 166 and 195 % of control; (dose: 50.0 mg/kg/injection, schedule: Q04DX003 (ip), vehicle: saline) 129 % of control; (dose: 66.0 mg/kg/injection, schedule: Q04DX003 (ip), vehicle: saline sonified) 125 % of control; (dose: 100.0 mg/kg/injection, schedule: Q04DX003 (ip), vehicle: saline sonified) 104 % of control. Under “dose: 100.0 mg/kg/injection, schedule: Q04DX003 (ip), vehicle: saline”, the T/C was 158 % of control. The survivor count (dose: 75.0 mg/kg/injection, schedule: Q01DX009 (ip), vehicle: saline sonified) is reported as 6 of 6; the survivor count (dose: 100.0 mg/kg/injection, schedule: Q01DX009 (ip), vehicle: saline sonified) is 1 of 6; the survivor count (dose: 150.0 mg/kg/injection, schedule: Q04DX003 (ip), vehicle: saline sonified) is recorded as 5 of 6; the survivor count (dose: 200.0 mg/kg/injection, schedule: Q04DX003 (ip), vehicle: saline) is listed as 5 of 6.
Turning to `O/N=C1/CNCC(NO)=N1`, the T/C runs as follows: (dose: 50.0 mg/kg/injection, schedule: Q01DX005 (ip), vehicle: saline) 101 % of control; (dose: 100.0 mg/kg/injection, schedule: Q01DX005 (ip), vehicle: saline) 100 % of control; (dose: 200.0 mg/kg/injection, schedule: Q01DX005 (ip), vehicle: saline) 107 % of control.
As for `CCC1COP(N(CC)CC)OC1` (stereo unspecified), the T/C runs as follows: (dose: 100.0 mg/kg/injection, schedule: Q01DX001 (ip), vehicle: saline with Tween-80) 101 % of control; (dose: 200.0 mg/kg/injection, schedule: Q01DX001 (ip), vehicle: saline with Tween-80) 94 % of control; (dose: 400.0 mg/kg/injection, schedule: Q01DX001 (ip), vehicle: saline with Tween-80) 100 % of control.
Regarding `NC(=O)N/N=C/c1ccc(N(CCCl)CCCl)cc1`, the T/C is, setting by setting: under setting [1], 98 and 126 % of control; under setting [2], 106 and 126 % of control; under setting [3], 95 and 153 % of control; under setting [4], 156 and 176 % of control; (dose: 400.0 mg/kg/injection, schedule: Q01DX009 (ip), vehicle: Klucel (hydroxypropylcellulose) (HPC)) 185 % of control.
Turning to `CN1C(=O)C(C)(Br)CSC1=NCc1ccccc1` (stereo unspecified), the T/C (dose: 50.0 mg/kg/injection, schedule: Q01DX005 (ip), vehicle: saline with Tween-80) is 100 % of control; the T/C (dose: 100.0 mg/kg/injection, schedule: Q01DX005 (ip), vehicle: saline with Tween-80) is 93 % of control; the T/C (dose: 200.0 mg/kg/injection, schedule: Q01DX005 (ip), vehicle: saline with Tween-80) was 103 % of control.
For `CC1CN1P(=O)(Nc1ccccn1)N1CC1C` (stereo unspecified), the T/C by setting is: (dose: 6.25 mg/kg/injection, schedule: Q01DX009 (ip), vehicle: saline) 122 % of control; (dose: 12.5 mg/kg/injection, schedule: Q01DX009 (ip), vehicle: saline) 122 % of control; (dose: 12.5 mg/kg/injection, schedule: Q01DX009 (ip), vehicle: suspension in saline) 113 % of control [5 of 6 alive]; (dose: 25.0 mg/kg/injection, schedule: Q01DX009 (ip), vehicle: saline) 114 % of control [5 of 6 alive]; (dose: 25.0 mg/kg/injection, schedule: Q01DX009 (ip), vehicle: suspension in saline) 134 % of control; (dose: 50.0 mg/kg/injection, schedule: Q01DX009 (ip), vehicle: saline) 122 % of control. The T/C reads like this: (dose: 50.0 mg/kg/injection, schedule: Q01DX009 (ip), vehicle: suspension in saline) 153 % of control; (dose: 100.0 mg/kg/injection, schedule: Q01DX009 (ip), vehicle: suspension in saline) 94 % of control.
